Results: US20160053022A1 (PETER MACCALLUM CANCER INSTITUTE, published 2016)
No constants are given. Whether binding was seen depends on the method and setting. Some results given as binding are weak or reduced against the parent protein; the word gives no strength.

Amino acid sequences for entries named in this document (tags omitted). Residues count along the entry.
UniProt P34925, residues 66-194: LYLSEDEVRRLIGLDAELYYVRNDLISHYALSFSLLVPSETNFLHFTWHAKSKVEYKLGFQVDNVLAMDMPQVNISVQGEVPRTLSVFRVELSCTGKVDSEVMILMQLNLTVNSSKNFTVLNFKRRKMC

Columns and labels:
[1] = biological target: T1, hRYKWD.Fc (human, UniProt P34925 66-194, limits assumed); assay: competitive phage ELISA on hRYKWD.Fc (competitor recombinant Wnt3a)
T1 construct: domain: WIF domain; also called hRYKWD.Fc.FLAG; fusion protein containing the human RYK WIF domain; not shown: Fc region of human IgG1

[2] = biological target: T1, hRYKWD.Fc; assay: phage display screen, direct binding and competitive ELISA (phage-displayed clone; competitor recombinant mouse Wnt3a)

Row | binding [1] | binding [2] | Binder
1 | binds | binds | scFv3 (scFv) scFv: EVQLLESGGGLVQPGGSLRLSCAASGFTFSSYAMSWVRQAPGKGLEWVSLIHKAGHTTQYADSVKGRFTISRDNSKNTLYLQMNSLRAEDTAVYYCAKGYRHFDYWGQGTLVTVSSGGGGSGGGGSGGGGSTDIQMTQSPSSLSASVGDRVAITCRASQSISSYLNWYQQKPGKAPKLLIYRASNLQSGVPSRFSGSGSGTDFTLTISSLQPEDFATYYCQQAVGSPRTFGQGTKVEIKRHHHHHH
2 | binds | binds | scFvN3 (scFv) scFv: EVQLLESGGGLVQPGGSLRLSCAASGFTFSSYAMSWVRQAPGKGLEWVSTISRVGFPTVYADSVKGRFTISRDNSKNTLYLQMNSLRAEDTAVYYCAKRGHPFDYWGQGTLVTVSSGGGGSGGGGSGGGGSTDIQMTQSPSSLSASVGDRVTITCRASQSISSYLNWYQQKPGKAPKLLIYQASVLQSGVPSRFSGSGSGTDFTLTISSLQPEDFATYYCQQPGPAPPTFGQGTKVEIKRHHHHHH
